Reference: patent US20250032629A1, “NOVEL NUCLEOLIN-BINDING PEPTIDE AND USE THEREOF” (ANYGEN CO., LTD., priority 2020, published 2025)
These are yes or no findings as the source states them, for the method shown. For part of these data: Binding seen in cells or lysates may run through a third protein. Some entries that bind do so weakly or less than the wild type. Blank lines part the entries; values can stand above or below the binder they belong to.

Amino acid sequences for entries named in this document (tags omitted). A change or cut given only in a name is not applied to a line headed by its entry. Residues count along the entry.
UniProt P19338: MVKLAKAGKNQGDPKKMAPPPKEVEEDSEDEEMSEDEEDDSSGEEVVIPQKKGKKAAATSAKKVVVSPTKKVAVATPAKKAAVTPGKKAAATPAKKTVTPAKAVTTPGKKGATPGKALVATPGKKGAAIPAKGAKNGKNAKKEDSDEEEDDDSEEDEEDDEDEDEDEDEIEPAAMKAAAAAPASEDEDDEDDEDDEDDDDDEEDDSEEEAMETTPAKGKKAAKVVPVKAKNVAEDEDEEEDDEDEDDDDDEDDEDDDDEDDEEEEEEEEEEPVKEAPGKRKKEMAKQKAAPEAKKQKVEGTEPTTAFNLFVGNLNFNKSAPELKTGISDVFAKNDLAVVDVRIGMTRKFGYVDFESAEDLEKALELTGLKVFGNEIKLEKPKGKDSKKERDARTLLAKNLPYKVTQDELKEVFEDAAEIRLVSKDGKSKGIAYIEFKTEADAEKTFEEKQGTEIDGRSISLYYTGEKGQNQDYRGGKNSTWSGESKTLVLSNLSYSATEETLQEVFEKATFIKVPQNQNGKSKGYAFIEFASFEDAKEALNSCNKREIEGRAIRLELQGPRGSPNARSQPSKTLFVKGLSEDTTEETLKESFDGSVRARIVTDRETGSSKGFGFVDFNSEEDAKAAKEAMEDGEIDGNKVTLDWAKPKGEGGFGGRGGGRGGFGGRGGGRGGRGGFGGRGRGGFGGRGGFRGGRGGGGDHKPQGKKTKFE
nucleolin (NCL) from MDA-MB-231 cell lysate: residues 2-710 of P19338
UniProt P12814: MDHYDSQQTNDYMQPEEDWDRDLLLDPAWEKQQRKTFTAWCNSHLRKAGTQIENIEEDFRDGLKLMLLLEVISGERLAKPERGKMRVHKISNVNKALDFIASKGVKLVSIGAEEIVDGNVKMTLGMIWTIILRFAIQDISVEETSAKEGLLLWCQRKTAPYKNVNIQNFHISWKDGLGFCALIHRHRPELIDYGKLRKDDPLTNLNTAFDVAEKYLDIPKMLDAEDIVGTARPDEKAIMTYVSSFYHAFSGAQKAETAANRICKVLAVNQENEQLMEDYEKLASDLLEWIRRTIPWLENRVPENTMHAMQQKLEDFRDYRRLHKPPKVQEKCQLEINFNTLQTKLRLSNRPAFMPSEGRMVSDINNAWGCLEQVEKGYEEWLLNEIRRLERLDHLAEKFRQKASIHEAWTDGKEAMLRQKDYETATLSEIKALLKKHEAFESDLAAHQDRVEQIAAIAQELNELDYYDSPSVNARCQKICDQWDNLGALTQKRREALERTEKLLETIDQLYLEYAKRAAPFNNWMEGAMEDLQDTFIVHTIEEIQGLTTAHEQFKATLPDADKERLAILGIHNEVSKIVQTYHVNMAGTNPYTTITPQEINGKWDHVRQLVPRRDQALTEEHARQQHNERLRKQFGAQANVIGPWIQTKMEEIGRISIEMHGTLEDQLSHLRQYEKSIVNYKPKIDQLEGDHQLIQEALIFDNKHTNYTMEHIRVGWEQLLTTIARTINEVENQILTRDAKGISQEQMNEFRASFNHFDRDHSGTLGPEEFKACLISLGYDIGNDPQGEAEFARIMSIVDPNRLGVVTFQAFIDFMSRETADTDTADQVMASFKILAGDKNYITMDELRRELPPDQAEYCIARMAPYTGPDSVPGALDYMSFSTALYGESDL
UniProt O43707: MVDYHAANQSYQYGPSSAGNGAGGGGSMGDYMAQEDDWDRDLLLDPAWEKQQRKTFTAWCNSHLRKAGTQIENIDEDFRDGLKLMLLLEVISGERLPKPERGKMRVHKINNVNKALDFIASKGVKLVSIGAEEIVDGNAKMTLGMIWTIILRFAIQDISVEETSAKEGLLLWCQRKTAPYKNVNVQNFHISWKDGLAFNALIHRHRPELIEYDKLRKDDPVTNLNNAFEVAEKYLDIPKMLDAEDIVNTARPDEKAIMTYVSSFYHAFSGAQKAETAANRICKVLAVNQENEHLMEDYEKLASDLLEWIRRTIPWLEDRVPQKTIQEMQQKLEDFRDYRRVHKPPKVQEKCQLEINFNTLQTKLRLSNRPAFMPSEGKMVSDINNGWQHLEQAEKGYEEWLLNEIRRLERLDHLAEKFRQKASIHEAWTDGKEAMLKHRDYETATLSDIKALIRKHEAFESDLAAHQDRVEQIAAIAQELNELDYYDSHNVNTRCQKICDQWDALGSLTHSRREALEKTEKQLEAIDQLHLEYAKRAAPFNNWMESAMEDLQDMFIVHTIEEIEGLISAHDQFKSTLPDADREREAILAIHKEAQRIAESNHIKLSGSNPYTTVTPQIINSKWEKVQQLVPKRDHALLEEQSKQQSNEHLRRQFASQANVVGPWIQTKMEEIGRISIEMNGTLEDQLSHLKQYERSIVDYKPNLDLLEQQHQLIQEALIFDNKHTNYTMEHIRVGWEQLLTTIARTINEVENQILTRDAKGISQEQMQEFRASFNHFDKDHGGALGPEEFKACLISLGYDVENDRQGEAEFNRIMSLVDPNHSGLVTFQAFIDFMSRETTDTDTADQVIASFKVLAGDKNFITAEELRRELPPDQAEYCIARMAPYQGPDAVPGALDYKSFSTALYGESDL
UniProt Q9Y678: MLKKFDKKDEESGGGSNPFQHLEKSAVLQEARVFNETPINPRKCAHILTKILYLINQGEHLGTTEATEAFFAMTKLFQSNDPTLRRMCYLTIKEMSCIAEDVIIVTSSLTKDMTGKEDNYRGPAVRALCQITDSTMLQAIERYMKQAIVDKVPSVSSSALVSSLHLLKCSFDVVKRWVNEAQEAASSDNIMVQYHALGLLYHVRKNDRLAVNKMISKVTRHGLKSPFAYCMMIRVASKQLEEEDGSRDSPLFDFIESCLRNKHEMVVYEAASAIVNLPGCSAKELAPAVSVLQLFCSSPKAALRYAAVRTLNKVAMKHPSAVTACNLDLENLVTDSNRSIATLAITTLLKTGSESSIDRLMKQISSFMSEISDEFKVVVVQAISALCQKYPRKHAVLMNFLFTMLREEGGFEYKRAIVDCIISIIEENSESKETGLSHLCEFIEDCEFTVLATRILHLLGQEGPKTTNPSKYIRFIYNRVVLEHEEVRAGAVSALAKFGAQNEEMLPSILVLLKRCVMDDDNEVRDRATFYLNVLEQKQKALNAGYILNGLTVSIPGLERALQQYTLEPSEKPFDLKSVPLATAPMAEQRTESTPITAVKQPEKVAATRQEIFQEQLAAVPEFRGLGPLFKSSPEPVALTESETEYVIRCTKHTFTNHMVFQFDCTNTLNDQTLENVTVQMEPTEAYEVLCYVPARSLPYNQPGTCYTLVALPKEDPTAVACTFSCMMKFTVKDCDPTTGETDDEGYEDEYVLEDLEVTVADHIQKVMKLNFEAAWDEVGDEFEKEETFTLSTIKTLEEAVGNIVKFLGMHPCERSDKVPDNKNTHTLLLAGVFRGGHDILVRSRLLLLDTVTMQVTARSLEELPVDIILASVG
UniProt P14625, residues 22-803: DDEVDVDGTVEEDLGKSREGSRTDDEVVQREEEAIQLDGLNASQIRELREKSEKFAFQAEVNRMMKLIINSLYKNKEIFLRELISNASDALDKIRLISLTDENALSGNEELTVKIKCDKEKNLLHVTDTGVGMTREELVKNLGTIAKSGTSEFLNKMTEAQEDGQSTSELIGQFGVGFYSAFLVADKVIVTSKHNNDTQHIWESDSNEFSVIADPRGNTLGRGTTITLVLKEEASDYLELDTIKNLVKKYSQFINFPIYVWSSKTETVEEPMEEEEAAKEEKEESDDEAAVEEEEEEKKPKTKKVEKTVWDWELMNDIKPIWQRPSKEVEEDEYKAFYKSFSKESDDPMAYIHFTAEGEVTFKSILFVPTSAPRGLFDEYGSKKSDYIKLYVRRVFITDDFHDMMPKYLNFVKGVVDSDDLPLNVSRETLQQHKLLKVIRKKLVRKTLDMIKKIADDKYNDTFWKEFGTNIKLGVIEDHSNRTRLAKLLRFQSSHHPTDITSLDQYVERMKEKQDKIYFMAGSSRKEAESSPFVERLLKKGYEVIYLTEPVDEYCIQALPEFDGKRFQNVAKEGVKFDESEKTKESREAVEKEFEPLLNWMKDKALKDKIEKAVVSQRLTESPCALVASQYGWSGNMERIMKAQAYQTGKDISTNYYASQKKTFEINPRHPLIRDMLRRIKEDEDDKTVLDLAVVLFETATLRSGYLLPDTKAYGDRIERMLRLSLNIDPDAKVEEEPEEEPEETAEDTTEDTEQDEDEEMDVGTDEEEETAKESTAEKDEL
UniProt P55072, residues 2-806: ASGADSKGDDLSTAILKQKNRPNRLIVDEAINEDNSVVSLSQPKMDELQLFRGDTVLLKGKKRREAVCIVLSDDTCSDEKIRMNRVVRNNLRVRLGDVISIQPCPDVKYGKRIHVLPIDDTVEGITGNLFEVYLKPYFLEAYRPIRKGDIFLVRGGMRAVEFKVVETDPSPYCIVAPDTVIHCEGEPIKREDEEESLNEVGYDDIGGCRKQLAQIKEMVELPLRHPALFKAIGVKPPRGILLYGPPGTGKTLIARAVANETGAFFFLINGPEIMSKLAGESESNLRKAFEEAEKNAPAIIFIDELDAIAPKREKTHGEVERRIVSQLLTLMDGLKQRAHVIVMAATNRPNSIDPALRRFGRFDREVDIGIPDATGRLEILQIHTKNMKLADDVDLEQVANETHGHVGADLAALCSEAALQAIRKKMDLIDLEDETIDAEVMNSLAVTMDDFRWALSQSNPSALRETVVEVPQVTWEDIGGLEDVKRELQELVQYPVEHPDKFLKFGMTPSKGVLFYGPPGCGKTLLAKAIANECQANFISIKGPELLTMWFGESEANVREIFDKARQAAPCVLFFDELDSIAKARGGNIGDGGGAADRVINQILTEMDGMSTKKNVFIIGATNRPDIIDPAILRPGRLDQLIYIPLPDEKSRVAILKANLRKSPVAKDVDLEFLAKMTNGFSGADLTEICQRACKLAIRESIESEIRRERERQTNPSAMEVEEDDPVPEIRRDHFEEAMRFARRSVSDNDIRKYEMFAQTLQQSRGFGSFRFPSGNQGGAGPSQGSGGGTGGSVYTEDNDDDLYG

What was measured:
[1] = target: T1, membrane nucleolin (NCL) on cancer cells (human, UniProt P19338 2-710); experiment: ELISA on cancer cells, biotin-conjugated PEGylated peptide, avidin-HRP
T1 construct: whole, on cells; also called membrane NCL; membrane-expressed NCL

[2] = target: T1, membrane nucleolin (NCL) on cancer cells; experiment: cell ELISA: biotin-conjugated PEGylated peptide on cancer cells (cell line not given), 2 h, avidin-HRP/TMB, absorbance at 450 nm
Protocol: Cancer cells (1×10⁴ cells/well) were seeded in 96-well plates and cultured for 24 hours, and then the cells were treated with increasing concentrations of 13 biotin-conjugated peptides for 2 hours. Then, avidin-HRP was attached through a high-affinity avidin-biotin interaction, and the TMB substrate was converted to blue through HRP enzyme. Then, the reaction was terminated by adding an acid, and the affinities of the 13 peptides were assessed by ELISA by reading the wells at […].
Cancer cells (1×10⁴ cells/well) were cultured in 96-well plates for 24 hours. AGM-330 and the 12 PEGylated peptides shown Table 2 were biotin-conjugated, and the cells were treated with increasing concentrations of the 13 peptides for 2 hours.
Thereafter, avidin-HRP was attached through a high-affinity avidin-biotin interaction, and the TMB substrate was converted to blue color through HRP enzyme. Then, the reaction was terminated by adding an acid, and the affinities of the 13 peptides were assessed by ELISA by reading the wells at […].

[3] = target: T1, membrane nucleolin (NCL) on cancer cells; experiment: double immunofluorescence, confocal microscopy, cancer cells with 5 µmol/l AGM-330-FITC
[4] = target: T1, membrane nucleolin (NCL) on cancer cells; experiment: confocal microscopy of MDA-MB-231 cells after knockdown of NCL with siRNA, 5 µmol/l AGM-330-FITC
[5] = target: T1, membrane nucleolin (NCL) on cancer cells; experiment: confocal microscopy of MDA-MB-231 cells after knockdown of NCL with siNCL1, 5 µmol/l AGM-330-FITC
[6] = target: nucleolin (NCL) from MDA-MB-231 cell lysate (human) (UniProt P19338); experiment: pull-down assay and LC-MS/MS
[7] = target: nucleolin (NCL) from MDA-MB-231 cell lysate (human) (UniProt P19338); experiment: biotin pull-down from MDA-MB-231 lysate, LC-MS/MS
[8] = target: purified NCL (from Jurkat cells) (UniProt P19338); experiment: biotin pull-down of purified NCL, anti-NCL immunoblot
[9] = target: GFP-NCL (residues 1-710) (human) (UniProt P19338); experiment: biotin pull-down from HEK293T lysates, anti-GFP immunoblot
[10] = target: nucleolin (NCL) from MDA-MB-231 cell lysate (human) (UniProt P19338); experiment: biotin pull-down from MDA-MB-231 lysate, LC-MS/MS and anti-NCL immunoblot
[11] = target: ACTN1 (human) (UniProt P12814); experiment: biotin pull-down from MDA-MB-231 whole lysate on avidin beads, bands cut from the elution lane, LC-MS/MS (Mascot); direct contact not shown, no confirming blot
[12] = target: ACTN4 (human) (UniProt O43707); experiment: as above
[13] = target: COPG1 (human) (UniProt Q9Y678); experiment: as above
[14] = target: HSP90B1 (human) (UniProt P14625); experiment: as above
[15] = target: VCP (human) (UniProt P55072); experiment: as above

binding [1]: binds | binding [2]: binds
Binder: RHRHRHGAMVYLK (PEGylated; biotin-conjugated (sites not given)) [AGM-330 variant R1H2R3H4 → Insertion (SEQ ID NO: 18)]

binding [3]: binds | binding [4]: binds | binding [5]: binds
Binder: RHGAMVYLK (FITC-labeled (site not stated)) [FITC-labeled AGM-330]

binding [6]: binds | binding [7]: binds | binding [8]: binds | binding [9]: binds | binding [10]: binds | binding [11]: binds | binding [12]: binds | binding [13]: binds | binding [14]: binds | binding [15]: binds
Binder: RHGAMVYLK (biotin-conjugated (site not stated)) [Biotinylated AGM-330]
